These are yes or no findings as the source states them, for the method shown. For some of these results: In cells and extracts the contact can be indirect. Some results given as binding are weak or reduced against the parent protein; the word gives no strength. Sequences can lack the tags named with a protein.
What was measured:
[1] = biological target: T1, Yc-E2-E10 (E2-E10 ORF fused to a C-terminal fragment of YFP) (human) (UniProt Q8IYT3); experiment: Bimolecular Fluorescence Complementation (BiFC) in co-transfected HT1080 cells, YFP read by flow cytometry
T1 sequence: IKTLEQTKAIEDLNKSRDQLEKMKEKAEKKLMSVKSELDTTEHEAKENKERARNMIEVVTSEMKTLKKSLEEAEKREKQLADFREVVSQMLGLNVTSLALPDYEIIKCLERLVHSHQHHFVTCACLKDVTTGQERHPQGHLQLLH

Amino acid sequences for entries named in this document (tags omitted). A change or cut given only in a name is not applied to a line headed by its entry.
UniProt P21860: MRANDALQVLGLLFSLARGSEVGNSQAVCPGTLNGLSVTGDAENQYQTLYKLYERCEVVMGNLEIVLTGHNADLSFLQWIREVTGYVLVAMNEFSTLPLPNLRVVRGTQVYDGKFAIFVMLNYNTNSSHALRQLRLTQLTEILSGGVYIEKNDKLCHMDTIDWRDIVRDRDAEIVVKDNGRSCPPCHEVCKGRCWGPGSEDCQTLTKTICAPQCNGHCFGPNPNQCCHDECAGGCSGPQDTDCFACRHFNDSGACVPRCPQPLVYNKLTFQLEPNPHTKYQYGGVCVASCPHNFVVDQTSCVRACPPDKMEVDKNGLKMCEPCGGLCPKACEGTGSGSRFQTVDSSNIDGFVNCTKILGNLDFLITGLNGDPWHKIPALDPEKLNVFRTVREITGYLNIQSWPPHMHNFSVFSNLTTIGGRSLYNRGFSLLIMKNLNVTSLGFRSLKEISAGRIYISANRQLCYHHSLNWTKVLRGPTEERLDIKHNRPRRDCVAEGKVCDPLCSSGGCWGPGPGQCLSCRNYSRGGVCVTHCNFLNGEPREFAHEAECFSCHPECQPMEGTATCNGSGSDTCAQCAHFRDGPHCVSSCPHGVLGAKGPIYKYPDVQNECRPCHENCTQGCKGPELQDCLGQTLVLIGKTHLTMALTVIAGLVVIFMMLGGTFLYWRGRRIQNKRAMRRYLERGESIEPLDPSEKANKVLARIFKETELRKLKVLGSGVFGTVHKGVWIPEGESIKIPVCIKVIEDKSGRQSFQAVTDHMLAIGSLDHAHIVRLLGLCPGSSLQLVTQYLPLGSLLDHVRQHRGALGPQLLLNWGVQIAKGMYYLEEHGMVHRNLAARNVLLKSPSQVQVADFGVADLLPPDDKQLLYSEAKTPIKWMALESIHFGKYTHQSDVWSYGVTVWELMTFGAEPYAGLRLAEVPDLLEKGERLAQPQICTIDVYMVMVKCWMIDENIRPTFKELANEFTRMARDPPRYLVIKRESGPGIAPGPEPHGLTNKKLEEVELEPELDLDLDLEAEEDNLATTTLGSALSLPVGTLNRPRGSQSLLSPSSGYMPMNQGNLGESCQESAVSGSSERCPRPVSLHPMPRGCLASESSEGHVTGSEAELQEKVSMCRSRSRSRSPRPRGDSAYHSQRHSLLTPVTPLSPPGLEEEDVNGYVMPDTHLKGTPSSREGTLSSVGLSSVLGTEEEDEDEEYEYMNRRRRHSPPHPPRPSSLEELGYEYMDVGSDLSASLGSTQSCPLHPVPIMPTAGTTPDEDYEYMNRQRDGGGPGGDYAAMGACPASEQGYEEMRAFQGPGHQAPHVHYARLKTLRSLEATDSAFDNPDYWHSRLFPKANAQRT

[2] = biological target: T1, Yc-E2-E10 (E2-E10 ORF fused to a C-terminal fragment of YFP) (human); experiment: BiFC assay of Yn- and Yc-tagged E2-E10 in HT1080 cells, flow cytometry (FIG. 7C)
[3] = biological target: HER3 (Erb-B2 Receptor Tyrosine Kinase 3) (human) (UniProt P21860); experiment: co-immunoprecipitation with anti-HER3 antibody from T47D cells expressing E2-E10, western blot with anti-CCDC170 antibody
[4] = biological target: HER3 (Erb-B2 Receptor Tyrosine Kinase 3) (human) (UniProt P21860); experiment: immunoprecipitation with anti-HER3 antibody from T47D cells expressing wtCCDC170 or E2-E10, immunoblot (FIG. 7A)

Row | binding [1] | binding [2] | binding [3] | binding [4] | Binder
1 | binds | binds |  |  | Yn-E2-E10 (E2-E10 ORF fused to an N-terminal fragment of YFP) (protein, not shown: large carriers) IKTLEQTKAIEDLNKSRDQLEKMKEKAEKKLMSVKSELDTTEHEAKENKERARNMIEVVTSEMKTLKKSLEEAEKREKQLADFREVVSQMLGLNVTSLALPDYEIIKCLERLVHSHQHHFVTCACLKDVTTGQERHPQGHLQLLH
2 |  |  | binds | binds | ΔCCDC170 protein encoded by the E2-E10 ESR1-CCDC170 fusion variant (protein) IKTLEQTKAIEDLNKSRDQLEKMKEKAEKKLMSVKSELDTTEHEAKENKERARNMIEVVTSEMKTLKKSLEEAEKREKQLADFREVVSQMLGLNVTSLALPDYEIIKCLERLVHSHQHHFVTCACLKDVTTGQERHPQGHLQLLH

— patent US20230175069A1, “COMPOSITIONS AND METHODS FOR DETECTING GENE FUSIONS OF ESR1 AND CCDC170 FOR DETERMINING INCREASED RESISTANCE TO ENDOCRINE THERAPY AND FOR CANCER TREATMENT” (UNIVERSITY OF PITTSBURGH-OF THE COMMONWEAL TH SYSTEM OF …, priority 2020, published 2023)
